Drawing on paper PMC5570191, this text covers binding for three molecules.

Assay [1] concerns the target T1, mouse TEX19.1-YFP (expressed in HEK293 or HEK293T cells) (mouse) (UniProt Q99MV2).
T1 sequence: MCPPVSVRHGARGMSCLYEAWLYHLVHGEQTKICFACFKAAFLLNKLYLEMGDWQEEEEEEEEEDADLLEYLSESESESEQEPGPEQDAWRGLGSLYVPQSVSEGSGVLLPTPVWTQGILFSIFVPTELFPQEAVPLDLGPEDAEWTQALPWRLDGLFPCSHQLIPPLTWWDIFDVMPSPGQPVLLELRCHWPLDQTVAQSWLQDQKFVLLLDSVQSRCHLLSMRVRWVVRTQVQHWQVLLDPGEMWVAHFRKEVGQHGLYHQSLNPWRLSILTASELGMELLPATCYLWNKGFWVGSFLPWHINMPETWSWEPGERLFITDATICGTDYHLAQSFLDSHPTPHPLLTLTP
As to the kind of experiment: co-IP; HEK293T co-transfected, harvested after 24 hr; GFP-Trap agarose beads to precipitate YFP- or GFP-tagged proteins; Western blot.

Assay [2] addresses Strep-tagged human L1-ORF1p (human). Description: pull-down; Strep-Tactin Sepharose pull-down from E. coli lysate of co-expressed proteins; 50 mM Hepes pH 7.0, 200 mM NaCl, 2 mM DTT, 45 min at 4°C; elution with 2.5 mM biotin, SDS-PAGE.
For assay [3] the target is unchanged. As to the kind of experiment: pull-down; Strep-Tactin pull-down from E. coli lysate of co-expressed proteins treated with micrococcal nuclease (4 x 10^3 gel units/ml, 2.5 mM CaCl2, 15 min at 4°C); 50 mM Hepes pH 7.0, 150 mM NaCl, 2 mM DTT.
Assay [4] shares this target. Description: condition: only proteins expressed separately, TEX19 added after L1-ORF1p immobilization on Strep-Tactin beads; pull-down; proteins expressed separately in E. coli: Strep-tagged partner immobilised on Strep-Tactin Sepharose from lysate and washed, then TEX19 lysate added, 45 min at 4°C; 50 mM Hepes pH 7.0, 200 mM NaCl, 2 mM DTT.

No constants are given. Whether binding was seen depends on the method and setting. In cells and extracts the contact can be indirect. For some assays here: Binding can be weak; no strength is given. Tags and fused reporters may be left off the sequences shown.

Turning to “T7 epitope-tagged mouse L1-ORF1p RNA-binding mutant R297A R298A”, the binding entry in assay [1] was “binds”.

B1: human TEX19, first 68 amino acids (domain or fragment, UniProt Q8NA77 1-68)
chain: MCPPVSMRYEEEGMSYLYASWMYQLQHGDQLSICFTCFKAAFLDFKDLLESEDWEEDNWDPELMEHTE
In the case of B1, the binding result in assay [2] was “binds”.

B2: double-tagged human MBP-TEX19-GB1-His6 (protein, UniProt Q8NA77 1-164)
chain: MCPPVSMRYEEEGMSYLYASWMYQLQHGDQLSICFTCFKAAFLDFKDLLESEDWEEDNWDPELMEHTEAESEQEGSSGMELSWGQSPGQPVQGGSEAWGPGTLAAAPEGLEDAGLDPHFVPTELWPQEAVPLGLGLEDADWTQGLPWRFEELLTCSHWPSFFPS
Turning to B2, the results for the binding result in assay [2], in assay [3] and in assay [4] were “binds”, “binds” and “no binding”, respectively.
